Data from paper PMC12001115, “Double prenylation of budding yeast Ykt6 regulates cell wall integrity and autophagy” (The Journal of Biological Chemistry, 2025).

By UniProt entry, the sequences of proteins in these tests, tags left out.
UniProt P01123: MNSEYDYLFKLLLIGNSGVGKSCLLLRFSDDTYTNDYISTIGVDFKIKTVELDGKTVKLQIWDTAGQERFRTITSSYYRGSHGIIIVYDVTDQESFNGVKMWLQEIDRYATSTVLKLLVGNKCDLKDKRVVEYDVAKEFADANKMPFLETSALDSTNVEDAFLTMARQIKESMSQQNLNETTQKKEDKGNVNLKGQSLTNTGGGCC

T1: Ecm9-FLAG (budding yeast (S. cerevisiae)) (UniProt Q02202)
T1 sequence: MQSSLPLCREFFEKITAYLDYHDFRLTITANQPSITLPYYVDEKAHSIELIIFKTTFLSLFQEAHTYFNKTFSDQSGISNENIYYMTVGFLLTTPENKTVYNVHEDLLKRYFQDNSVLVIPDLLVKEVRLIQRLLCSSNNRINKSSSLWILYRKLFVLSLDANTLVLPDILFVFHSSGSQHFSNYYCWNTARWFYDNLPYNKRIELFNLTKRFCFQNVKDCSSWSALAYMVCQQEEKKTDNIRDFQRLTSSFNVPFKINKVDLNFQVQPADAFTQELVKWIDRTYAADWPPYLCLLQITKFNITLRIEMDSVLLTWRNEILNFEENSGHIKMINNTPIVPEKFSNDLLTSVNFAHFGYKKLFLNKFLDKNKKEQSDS

T2: Bet2-FLAG (budding yeast (S. cerevisiae)) (UniProt P20133)
T2 sequence: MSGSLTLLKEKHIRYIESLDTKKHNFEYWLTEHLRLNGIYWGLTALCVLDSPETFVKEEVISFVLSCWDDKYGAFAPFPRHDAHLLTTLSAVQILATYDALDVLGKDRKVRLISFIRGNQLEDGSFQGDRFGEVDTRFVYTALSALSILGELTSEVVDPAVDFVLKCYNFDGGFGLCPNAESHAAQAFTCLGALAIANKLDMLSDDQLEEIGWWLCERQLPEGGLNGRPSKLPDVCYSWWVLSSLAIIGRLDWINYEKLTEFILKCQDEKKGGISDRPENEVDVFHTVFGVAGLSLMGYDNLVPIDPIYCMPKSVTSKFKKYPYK

B1: Ram1 (protein, UniProt P22007 1-431)
chain: MRQRVGRSIARAKFINTALLGRKRPVMERVVDIAHVDSSKAIQPLMKELETDTTEARYKVLQSVLEIYDDEKNIEPALTKEFHKMYLDVAFEISLPPQMTALDASQPWMLYWIANSLKVMDRDWLSDDTKRKIVDKLFTISPSGGPFGGGPGQLSHLASTYAAINALSLCDNIDGCWDRIDRKGIYQWLISLKEPNGGFKTCLEVGEVDTRGIYCALSIATLLNILTEELTEGVLNYLKNCQNYEGGFGSCPHVDEAHGGYTFCATASLAILRSMDQINVEKLLEWSSARQLQEERGFCGRSNKLVDGCYSFWVGGSAAILEAFGYGQCFNKHALRDYILYCCQEKEQPGLRDKPGAHSDFYHTNYCLLGLAVAESSYSCTPNDSPHNIKCTPDRLIGSSKLTDVNPVYGLPIENVRKIIHYFKSNLSSPS
B2: Cdc43 (protein, UniProt P18898 1-376)
chain: MCQATNGPSRVVTKKHRKFFERHLQLLPSSHQGHDVNRMAIIFYSISGLSIFDVNVSAKYGDHLGWMRKHYIKTVLDDTENTVISGFVGSLVMNIPHATTINLPNTLFALLSMIMLRDYEYFETILDKRSLARFVSKCQRPDRGSFVSCLDYKTNCGSSVDSDDLRFCYIAVAILYICGCRSKEDFDEYIDTEKLLGYIMSQQCYNGAFGAHNEPHSGYTSCALSTLALLSSLEKLSDKFKEDTITWLLHRQVSSHGCMKFESELNASYDQSDDGGFQGRENKFADTCYAFWCLNSLHLLTKDWKMLCQTELVTNYLLDRTQKTLTGGFSKNDEEDADLYHSCLGSAALALIEGKFNGELCIPQEIFNDFSKRCCF
B3: Ecm9 (protein, UniProt Q02202 1-377)
chain: T1 sequence
B4: Bet4 (protein, UniProt Q00618 1-327)
chain: MHGIKRKQWTKELLRQKRVQDEKKIYDYRSLTENVLNMRDEKIYSIEALKKTSELLEKNPEFNAIWNYRRDIIASLASELEIPFWDKELVFVMMLLKDYPKVYWIWNHRLWVLKHYPTSSPKVWQTELAVVNKLLEQDARNYHGWHYRRIVVGNIESITNKSLDKEEFEYTTIKINNNISNYSAWHQRVQIISRMFQKGEVGNQKEYIRTEISYIINAMFTDAEDQSVWFYIKWFIKNDIVCKTLDEQEYLKMLKDLRENILLINNDEIEFSGKQNIWCLKILLVLEDILEEKEALTERSSEQYLVQLIDADPLRKNRYLHLLEQHK
B5: Mrs6 (protein, UniProt P32864 1-603)
chain: MLSPERRPSMAERRPSFFSFTQNPSPLVVPHLAGIEDPLPATTPDKVDVLIAGTGMVESVLAAALAWQGSNVLHIDKNDYYGDTSATLTVDQIKRWVNEVNEGSVSCYKNAKLYVSTLIGSGKYSSRDFGIDLSPKILFAKSDLLSILIKSRVHQYLEFQSLSNFHTYENDCFEKLTNTKQEIFTDQNLPLMTKRNLMKFIKFVLNWEAQTEIWQPYAERTMSDFLGEKFKLEKPQVFELIFSIGLCYDLNVKVPEALQRIRRYLTSFDVYGPFPALCSKYGGPGELSQGFCRSAAVGGATYKLNEKLVSFNPTTKVATFQDGSKVEVSEKVIISPTQAPKDSKHVPQQQYQVHRLTCIVENPCTEWFNEGESAAMVVFPPGSLKSGNKEVVQAFILGAGSEICPEGTIVWYLSTTEQGPRAEMDIDAALEAMEMALLRESSSGLENDEEIVQLTGNGHTIVNSVKLGQSFKEYVPRERLQFLFKLYYTQYTSTPPFGVVNSSFFDVNQDLEKKYIPGASDNGVIYTTMPSAEISYDEVVTAAKVLYEKIVGSDDDFFDLDFEDEDEIQASGVANAEQFENAIDDDDDVNMEGSGEFVGEMEI
B6: Ypt51 (protein, UniProt P36017 1-210)
chain: MNTSVTSIKLVLLGEAAVGKSSIVLRFVSNDFAENKEPTIGAAFLTQRVTINEHTVKFEIWDTAGQERFASLAPMYYRNAQAALVVYDVTKPQSFIKARHWVKELHEQASKDIIIALVGNKIDMLQEGGERKVAREEGEKLAEEKGLLFFETSAKTGENVNDVFLGIGEKIPLKTAEEQNSASNERESNNQRVDLNAANDGTSANSACSC

The molecules below were run against T1, Ecm9-FLAG (budding yeast (S. cerevisiae)) (assay: affinity purification with mass spectrometry; anti-FLAG antibody on protein G magnetic beads; cytosolic fraction (200,000g) of yeast cells expressing Ecm9-FLAG or Bet2-FLAG or control cells; buffer B (50 mM HEPES-KOH pH 7.4, 100 mM NaCl, 5 mM MgCl2, 1 mM DTT); DIA LC-MS/MS).

Molecule	binding
B1	no binding
B2	no binding

The molecules below were run against T2, Bet2-FLAG (budding yeast (S. cerevisiae)) in the same assay as above.

Molecule	binding
Ypt1 (from UniProt P01123 1-206)	binds
B3	binds
B4	binds
B5	binds
B6	binds

Results are given in words; binding and its absence hold for the method and conditions named. Binding seen in cells or lysates may run through a third protein. Here binding means that the protein was enriched with, or labelled near, the bait; the list need not be complete. For some of these results: No binding means not detected with the bait. Where a sequence is shown, tags or fusion partners need not be part of it.
